# In US20130156764A1, “NEUTRALIZATION OF FLT3 LIGAND AS A LEUKEMIA THERAPY” (The Johns Hopkins University, priority 2010, published 2013):
# Test system: FLT3 autophosphorylation in Molm14 cells (FLT3/ITD)
# Assay: Inhibition of FLT3 autophosphorylation in Molm14 cells in presence of FL (immunoblot)
# Type: cell-based
# Experimental: Leukemia cells were washed in PBS, then lysed by re-suspending them in lysis buffer (20 mM Tris pH 7.4, 100 mM NaCl, 1% Igepal (Sigma, St. Louis, Mo.), 1 mM EDTA, 2 mM NaV04, plus Complete protease inhibitor (Roche)) for 30 minutes while rocking. The extract was clarified by centrifugation at 14,000 rpm and the supernatant was assayed for protein (Bio-Rad, Richmond, Calif.). A 50 μg aliquot was removed as whole-cell lysate for analysis of STAT5, and the remainder was used for immunoprecipitation with anti-FLT3 antibody. Anti-FLT3 antibody (SI8; Santa Cruz Biotechnology, Santa Cruz, Calif.) was added to the extract for overnight incubation, then protein A sepharose (Upstate Biotechnology, Lake Placid, N.Y.) was added for 2 additional hours. Separate SDS-PAGE (sodium dodecylsulfate polyacrylamide electrophoresis) gels for whole-cell lysate and immunoprecipitates were run in parallel, After transfer to Immobilon membranes (Millipore, Bedford, Mass.), immunoblotting was performed with antiphosphotyrosine antibody (4G10; Upstate Biotechnology, Lake Placid, N.Y.) to detect phosphorylated FLT3, and then stripped and re-probed with anti-FLT3 antibody to measure total FLT3. Proteins were visualized using chemiluminescence (ECL; GE Healthcare, Piscataway, N.J.), exposed on Kodak BioMax XAR Film, developed, and scanned using a BioRad GS800 densitometer.
smiles,measurement,setting,value
CO[C@@H]1[C@H](N(C)C(=O)c2ccccc2)C[C@H]2O[C@]1(C)n1c3ccccc3c3c4c(c5c6ccccc6n2c5c31)C(=O)NC4 [Midostaurin],effect of FL on dose response curve for inhibition of FLT3 autophosphorylation,"exogenous FL, in medium and plasma",upward shift in the dose response curves
same,effect of addition of FL on inhibition at the highest doses used,medium and plasma,loss of complete inhibition
